Assays:
[1] = Behavior of compound in methanol under light irradiation with wavelength of 313 nm or 365 nm (absorbance; Test Examples 1, 2, 8, 9); type: physicochemical; conditions: methanol solution, 313 nm and 365 nm
Method: (§1) The compound (1)-1 obtained above was dissolved in methanol so as to have a concentration of 2.0×10^−5 mol/L. Then, using a mercury xenon lamp, the illuminance was set to 5 mW/cm^2, the exposure doses were set to 0, 10, 30, 60 and 100 mJ/cm^2, and the obtained methanol solution was irradiated with light having a wavelength of 313 nm. Then, the absorbance of the compound (1)-1 was measured.
as §1, with “using an LED” for “using a mercury xenon”, “to 10” for “to 5”, “of 365” for “of 313”
as §1, with “compound (1)-2” for “compound (1)-1”, “to 10” for “to 5”, “0,” for “0, 10,”, “30, 100, 200” for “30, 60”, “and 300” for “and 100”, “measured. […]” for “measured.”

[2] = UV curing of liquid epoxy compound (Test Example 5); conditions: 365 nm, post-bake 80, 100 or 120° C. for 60 minutes, no curing accelerator
[3] = Negative patterning using photoreactive composition (Test Example 10); conditions: 2 mol % with respect to PGMA, 365 nm, 1000 mJ/cm^2, post-bake 80° C. 270 seconds

| SMILES | generation of a base by light irradiation (absorbance spectra) [1] | curing of the liquid epoxy compound by UV irradiation [2] | normalized film thickness (after development / before light irradiation) [3] | thickness of the coating film after development ([3]; cyclohexanone 30 seconds) [μm] |
| --- | --- | --- | --- | --- |
| O=C(/C=C/c1ccccc1O)Nc1ccncc1 [compound (1)-1] | a base was generated | it was possible to cure the liquid epoxy compound | – | – |
| CN(C(=O)/C=C/c1ccccc1O)c1ccncc1 [compound (1)-2] | a base was generated | – | 0.96 | 1.6 |

From US12399427B2, “Photobase generator, compound, photoreactive composition and reaction product” (Tokyo University of Science Foundation, priority 2019, dated 2025)
